Reference: ChEMBL document CHEMBL4316593 (Eur J Med Chem, 2019)
Further values from the same series stand in other lists.

Legend:
Format in all cases: cell-based
Conditions in all cases: U-87MG ATCC
[1] = Inhibition of RTK/PI3K/AKT/mTOR signaling in human U87 cells assessed as up regulation of progestin and adipoQ receptor family member 7 gene expression at cytotoxic IC50 measured after 48 hrs relative to control
[2] = Inhibition of RTK/PI3K/AKT/mTOR signaling in human U87 cells assessed as up regulation of PC gene expression at cytotoxic IC50 measured after 48 hrs relative to control
[3] = Inhibition of RTK/PI3K/AKT/mTOR signaling in human U87 cells assessed as down regulation of ATP6AP2 gene expression at cytotoxic IC50 measured after 48 hrs relative to control
[4] = Inhibition of RTK/PI3K/AKT/mTOR signaling in human U87 cells assessed as down regulation of C7orf50 gene expression at cytotoxic IC50 measured after 48 hrs relative to control
[5] = Inhibition of RTK/PI3K/AKT/mTOR signaling in human U87 cells assessed as up regulation of midasin AAA ATPase 1 gene expression at cytotoxic IC50 measured after 48 hrs relative to control
[6] = Inhibition of RTK/PI3K/AKT/mTOR signaling in human U87 cells assessed as up regulation of arrestin domain containing 2 gene expression at cytotoxic IC50 measured after 48 hrs relative to control
[7] = Inhibition of RTK/PI3K/AKT/mTOR signaling in human U87 cells assessed as down regulation of KNTC1 gene expression at cytotoxic IC50 measured after 48 hrs relative to control
[8] = Inhibition of RTK/PI3K/AKT/mTOR signaling in human U87 cells assessed as up regulation of CD320 molecule gene expression at cytotoxic IC50 measured after 48 hrs relative to control
[9] = Inhibition of RTK/PI3K/AKT/mTOR signaling in human U87 cells assessed as down regulation of ATP6V1H gene expression at cytotoxic IC50 measured after 48 hrs relative to control
[10] = Inhibition of RTK/PI3K/AKT/mTOR signaling in human U87 cells assessed as down regulation of RBSN gene expression at cytotoxic IC50 measured after 48 hrs relative to control
[11] = Inhibition of RTK/PI3K/AKT/mTOR signaling in human U87 cells assessed as up regulation of zinc fingers and homeoboxes 2 gene expression at cytotoxic IC50 measured after 48 hrs relative to control
[12] = Inhibition of RTK/PI3K/AKT/mTOR signaling in human U87 cells assessed as up regulation of aldehyde dehydrogenase 18 family member A1 gene expression at cytotoxic IC50 measured after 48 hrs relative to control
[13] = Inhibition of RTK/PI3K/AKT/mTOR signaling in human U87 cells assessed as up regulation of lysophosphatidylcholine acyltransferase 4 gene expression at cytotoxic IC50 measured after 48 hrs relative to control
[14] = Inhibition of RTK/PI3K/AKT/mTOR signaling in human U87 cells assessed as down regulation of TRIM36 gene expression at cytotoxic IC50 measured after 48 hrs relative to control
[15] = Inhibition of RTK/PI3K/AKT/mTOR signaling in human U87 cells assessed as down regulation of TBCE gene expression at cytotoxic IC50 measured after 48 hrs relative to control
[16] = Inhibition of RTK/PI3K/AKT/mTOR signaling in human U87 cells assessed as down regulation of FAM161B gene expression at cytotoxic IC50 measured after 48 hrs relative to control
[17] = Inhibition of RTK/PI3K/AKT/mTOR signaling in human U87 cells assessed as down regulation of PCSK5 gene expression at cytotoxic IC50 measured after 48 hrs relative to control
[18] = Inhibition of RTK/PI3K/AKT/mTOR signaling in human U87 cells assessed as up regulation of septin 2 gene expression at cytotoxic IC50 measured after 48 hrs relative to control
[19] = Inhibition of RTK/PI3K/AKT/mTOR signaling in human U87 cells assessed as down regulation of REPS1 gene expression at cytotoxic IC50 measured after 48 hrs relative to control
[20] = Inhibition of RTK/PI3K/AKT/mTOR signaling in human U87 cells assessed as up regulation of trafficking protein particle complex 6A gene expression at cytotoxic IC50 measured after 48 hrs relative to control
[21] = Inhibition of RTK/PI3K/AKT/mTOR signaling in human U87 cells assessed as up regulation of RPL29 gene expression at cytotoxic IC50 measured after 48 hrs relative to control
[22] = Inhibition of RTK/PI3K/AKT/mTOR signaling in human U87 cells assessed as up regulation of BNIP3 gene expression at cytotoxic IC50 measured after 48 hrs relative to control
[23] = Inhibition of RTK/PI3K/AKT/mTOR signaling in human U87 cells assessed as down regulation of ETV5 gene expression at cytotoxic IC50 measured after 48 hrs relative to control
[24] = Inhibition of RTK/PI3K/AKT/mTOR signaling in human U87 cells assessed as down regulation of MED13 gene expression at cytotoxic IC50 measured after 48 hrs relative to control
[25] = Inhibition of RTK/PI3K/AKT/mTOR signaling in human U87 cells assessed as down regulation of CCNT1 gene expression at cytotoxic IC50 measured after 48 hrs relative to control
[26] = Inhibition of RTK/PI3K/AKT/mTOR signaling in human U87 cells assessed as down regulation of ZNF333 gene expression at cytotoxic IC50 measured after 48 hrs relative to control
[27] = Inhibition of RTK/PI3K/AKT/mTOR signaling in human U87 cells assessed as down regulation of CHRNB1 gene expression at cytotoxic IC50 measured after 48 hrs relative to control
[28] = Inhibition of RTK/PI3K/AKT/mTOR signaling in human U87 cells assessed as down regulation of HGH1 gene expression at cytotoxic IC50 measured after 48 hrs relative to control
[29] = Inhibition of RTK/PI3K/AKT/mTOR signaling in human U87 cells assessed as up regulation of 5'-nucleotidase ecto gene expression at cytotoxic IC50 measured after 48 hrs relative to control
[30] = Inhibition of RTK/PI3K/AKT/mTOR signaling in human U87 cells assessed as up regulation of SYNE3 gene expression at cytotoxic IC50 measured after 48 hrs relative to control
[31] = Inhibition of RTK/PI3K/AKT/mTOR signaling in human U87 cells assessed as down regulation of RTN4 gene expression at cytotoxic IC50 measured after 48 hrs relative to control
[32] = Inhibition of RTK/PI3K/AKT/mTOR signaling in human U87 cells assessed as down regulation of RFC3 gene expression at cytotoxic IC50 measured after 48 hrs relative to control

For `CC(=O)C(=NNc1ccccc1C#N)C(C)=O`, which log2FC [1] is on record?
Its log2FC is 1.17.

What about the log2FC [2] of the same molecule?
Its log2FC is 1.86.

And the log2FC [3]?
The log2FC was -0.39.

And the log2FC [4]?
The log2FC was -0.883.

What about the log2FC [5] of the same molecule?
The log2FC was 0.771.

What about the log2FC [6] of the same molecule?
The log2FC was 0.89.

And the log2FC [7]?
The log2FC was -0.819.

And the log2FC [8]?
Its log2FC is 1.1.

And the log2FC [9]?
The log2FC was -0.687.

What about the log2FC [10] of the same molecule?
The log2FC was -0.719.

And the log2FC [11]?
The log2FC was 1.31.

And the log2FC [12]?
The log2FC was 0.67.

What about the log2FC [13] of the same molecule?
Its log2FC is 0.946.

What about the log2FC [14] of the same molecule?
The log2FC was -1.61.

And the log2FC [15]?
Its log2FC is -0.953.

What about the log2FC [16] of the same molecule?
Its log2FC is -1.15.

What about the log2FC [17] of the same molecule?
Its log2FC is -1.33.

And the log2FC [18]?
Its log2FC is 0.647.

And the log2FC [19]?
Its log2FC is -0.538.

What about the log2FC [20] of the same molecule?
The log2FC was 1.1.

What about the log2FC [21] of the same molecule?
The log2FC was 0.53.

What about the log2FC [22] of the same molecule?
The log2FC was 2.88.

And the log2FC [23]?
Its log2FC is -0.707.

What about the log2FC [24] of the same molecule?
The log2FC was -0.525.

And the log2FC [25]?
The log2FC was -0.62.

And the log2FC [26]?
The log2FC was -0.737.

And the log2FC [27]?
The log2FC was -0.661.

And the log2FC [28]?
Its log2FC is -0.973.

And the log2FC [29]?
Its log2FC is 0.949.

What about the log2FC [30] of the same molecule?
The log2FC was 2.31.

What about the log2FC [31] of the same molecule?
Its log2FC is -0.445.

What about the log2FC [32] of the same molecule?
The log2FC was -1.31.
